# Source: PubChem BioAssay AID2685 (National Center for Advancing Translational Sciences (NCATS), 2010)
# Some of the results follow. The main result of the screen is listed elsewhere. These columns were measured beside it and carry no call. The list favours compounds with an active or inconclusive main result.
# Assay: qHTS Assay for Lipid Storage Modulators in Drosophila S3 Cells;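 further: cells counted by Cell Tracker Red CMTPX staining in the red channel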
# Details: BODIPY lipid droplet fluorescence, 18-24 h, measured here: cell count max response, cells fed with added oleic acid
# Source text: NIH Molecular Libraries Probe Production Centers Network [MLPCN] NIH Chemical Genomics Center [NCGC] MLPCN Grant: 1 R03 MH085686-01 Assay Submitter (PI): Beller, Mathias; Max-Planck-Institut fur Biophysikalische Chemie NCGC Assay Overview: Storing lipids as a reservoir for energy or the anabolism of elementary metabolites is a common feature of probably all cells and is conserved from bacteria to humans. The universal cellular lipid storage organelle is the so-called lipid storage droplet (LD). Although ubiquitous, LDs share a simple structure composed of a hydrophobic core that harbors the storage lipids, which is shielded by a droplet-specific phospholipid monolayer to which proteins are attached. […]
# Triacsin C (Sigma-Aldrich T-4540), an inhibitor of long-chain fatty acyl CoA synthetase that blocks synthesis of triglycerides, was used as a positive control for lipid under-storage. […] Fluorescence was detected by excitation of the fluorophores with a 488-nm laser on an Acumen Explorer (TTP Lab Tech). […] Cells were detected using channel 3 (575-640 nm) with 5-um width and 100-um depth filters. The ratio of the number of objects in PMT channel 2 over the number of objects in PMT channel 3 was also calculated. […]
row,Structure (SMILES),cell number change [%]
1,COc1cc(/C=C2/C(=O)NN(c3ccc(Cl)cc3)C2=O)cc(Br)c1O,-22
2,Cc1cc(N2C(=O)C(O)=C(C(=O)c3cc4ccccc4o3)C2c2cccc(Br)c2)no1 (configuration not stated),8.02
